These are yes or no findings as the source states them, for the method shown. Binding seen in cells or lysates may run through a third protein. Binding calls can cover weak binding; strength is not graded here. Tags and fused reporters may be left off the sequences shown.
How the values were obtained:
Assay in all cases: co-IP; COS-7 cells transiently expressing epitope-tagged POPDC constructs, 1% Triton X-100 lysis buffer; c-Myc Tag or HA Tag IP/Co-IP kit; Western blot
[1] = target: POPDC1-MYC truncation Δ116 (not stated (human or mouse cDNA cloned))
[2] = target: POPDC1-MYC truncation Δ172 (not stated (human or mouse cDNA cloned))
[3] = target: POPDC1-MYC truncation Δ236 (not stated (human or mouse cDNA cloned))
[4] = target: POPDC1-MYC truncation Δ245 (not stated (human or mouse cDNA cloned))

Measured: binding

B1: POPDC2-FLAG (protein, UniProt Q9HBU9 1-364)
chain: MSANSSRVGQLLLQGSACIRWKQDVEGAVYHLANCLLLLGFMGGSGVYGCFYLFGFLSAGYLCCVLWGWFSACGLDIVLWSFLLAVVCLLQLAHLVYRLREDTLPEEFDLLYKTLCLPLQVPLQTYKEIVHCCEEQVLTLATEQTYAVEGETPINRLSLLLSGRVRVSQDGQFLHYIFPYQFMDSPEWESLQPSEEGVFQVTLTAETSCSYISWPRKSLHLLLTKERYISCLFSALLGYDISEKLYTLNDKLFAKFGLRFDIRLPSLYHVLGPTAADAGPESEKGDEEVCEPAVSPPQATPTSLQQTPPCSTPPATTNFPAPPTRARLSRPDSGILASRIPLQSYSQVISRGQAPLAPTHTPEL
binds: [1] | [2] | [3] | [4]

Source: paper PMC9830914, “Differential effects of mutations of POPDC proteins on heteromeric interaction and membrane trafficking” (Acta Neuropathologica Communications, 2023)
